Measured data: PubChem BioAssay AID743454 (Peter MacCallum Cancer Centre, 2014)
Shown is one part, drawn at random, of about 18,000 reagents tested. In the full data, 450 (2.5%) are marked active. 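Single biological run; no consistent viability z cut-off exists, so the class columns, not z-scores, define the calls.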

Aim: 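Search for knock-downs that restore vorinostat killing in resistant colon cancer cells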 (primary screen)
Cells: human HCT116-VR colon cancer cells, selected for vorinostat resistance
Reagent: siRNA pool against human genes, 40 nM siRNA pool
Duration: vorinostat for 24 h, read-out about 72 h after transfection
Treatment: vorinostat at 2.5 µM final
Measurement: 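Cell viability by CellTiter-Fluor and caspase 3/7 activity by luminescence, each scaled to mock wells per plate, duplicates averaged, then robust z-scored over all plates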
Direction: viability robust z-score: higher = more viable cells than screen typical; caspase robust z-score: higher = more caspase 3/7 activity than screen typical
Call rule: 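a knock-down is a hit when classed RV1 or RV2 for lowered viability, or CA1 or CA2 for caspase activation; those lethal without drug were dropped; hits were retested singly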

no.	gene knocked down	viability hit class	caspase hit class	viability robust z-score	caspase robust z-score	activity call
1	TBX5 (GeneID 6910)	no change	no change	0.37	-0.74	inactive
2	VAX1 (GeneID 11023)	no change	CA1 (caspase activation)	-0.3	6.54	active
3	HLA-DPA1 (GeneID 3113)	no change	no change	0.93	-0.6	inactive
4	CDRT15P3 (GeneID 408029)	no change	no change	-2.85	0.96	inactive
5	C6orf58 (GeneID 352999)	no change	no change	1.29	0.56	inactive
6	GAL3ST3 (GeneID 89792)	no change	no change	-0.36	-0.18	inactive
7	GPRC5D (GeneID 55507)	no change	no change	-0.52	-0.56	inactive
8	TESK2 (GeneID 10420)	no change	no change	0.66	-0.94	inactive
9	ACTRT2 (GeneID 140625)	no change	no change	0.54	1.91	inactive
10	WNT9B (GeneID 7484)	no change	no change	-0.12	2.05	inactive
11	PPTC7 (GeneID 160760)	no change	no change	-0.92	-0.34	inactive
12	HS6ST1 (GeneID 9394)	no change	no change	-0.94	3.2	inactive
13	DCAF8L1 (GeneID 139425)	no change	no change	0.55	-0.88	inactive

The list goes on, starting with the last 5 of the part before.
no.	gene knocked down	viability hit class	caspase hit class	viability robust z-score	caspase robust z-score	activity call
9	ACTRT2 (GeneID 140625)	no change	no change	0.54	1.91	inactive
10	WNT9B (GeneID 7484)	no change	no change	-0.12	2.05	inactive
11	PPTC7 (GeneID 160760)	no change	no change	-0.92	-0.34	inactive
12	HS6ST1 (GeneID 9394)	no change	no change	-0.94	3.2	inactive
13	DCAF8L1 (GeneID 139425)	no change	no change	0.55	-0.88	inactive
14	SPRTN (GeneID 83932)	no change	no change	0.6	0.22	inactive
15	CHRNA1 (GeneID 1134)	no change	no change	-0.74	4.04	inactive
16	RYK (GeneID 6259)	no change	no change	1.06	-0.75	inactive
17	TMPRSS11B (GeneID 132724)	no change	no change	0.24	1.28	inactive
18	MIB1 (GeneID 57534)	no change	no change	-0.44	0.36	inactive
19	LEF1 (GeneID 51176)	no change	no change	0.53	-0.56	inactive
20	ADSS2 (GeneID 159)	no change	no change	2.25	-0.12	inactive
21	HIPK3 (GeneID 10114)	no change	no change	-0.66	1.95	inactive
22	IFT172 (GeneID 26160)	no change	no change	-1.12	2.64	inactive
23	CCL4L2 (GeneID 9560)	no change	no change	0.62	-1	inactive
24	RNF138 (GeneID 51444)	no change	no change	-2.69	2.86	inactive
25	CCDC59 (GeneID 29080)	no change	CA2 (caspase activation)	-1.27	5.75	active
26	NIPSNAP3A (GeneID 25934)	no change	no change	1.29	-0.36	inactive
27	TGFBR3 (GeneID 7049)	no change	no change	0.68	2.59	inactive
28	AGR2 (GeneID 10551)	no change	no change	-0.52	-0.36	inactive
29	LASP1 (GeneID 3927)	no change	no change	-0.9	-0.28	inactive
30	IER5L (GeneID 389792)	no change	no change	2.62	1	inactive
31	KIAA0232 (GeneID 9778)	no change	no change	0.13	-0.65	inactive
32	NOC2L (GeneID 26155)	no change	no change	-1.41	1.08	inactive
33	DCUN1D1 (GeneID 54165)	no change	no change	-0.24	-0.18	inactive
34	OR4N2 (GeneID 390429)	no change	no change	-0.5	-0.92	inactive
35	TNFRSF11A (GeneID 8792)	no change	no change	-1.21	0.96	inactive
36	GSK3A (GeneID 2931)	no change	no change	-0.32	-0.45	inactive
37	NR1I2 (GeneID 8856)	no change	no change	0.4	-0.46	inactive
38	KCNH5 (GeneID 27133)	no change	no change	0.26	-0.76	inactive
39	ZNF568 (GeneID 374900)	no change	no change	1.21	-0.27	inactive
